Assay results from patent publication US20030166056A1, “Transmembrane protein as a downstream target of neurotrophin and ephrin receptor tyrosine kinases, DNA encoding same and monoclonal antibodies thereto” (New York University, priority 2000, published 2003).
Results are given in words; binding and its absence hold for the method and conditions named. Binding seen in cells or lysates may run through a third protein. Some results given as binding are weak or reduced against the parent protein; the word gives no strength.

Sequences of proteins named here, by UniProt entry; tags and fusion partners are left off. A change or cut given only in a name is not applied to a line headed by its entry. Residues count along the entry.
UniProt P35739, residues 33-799: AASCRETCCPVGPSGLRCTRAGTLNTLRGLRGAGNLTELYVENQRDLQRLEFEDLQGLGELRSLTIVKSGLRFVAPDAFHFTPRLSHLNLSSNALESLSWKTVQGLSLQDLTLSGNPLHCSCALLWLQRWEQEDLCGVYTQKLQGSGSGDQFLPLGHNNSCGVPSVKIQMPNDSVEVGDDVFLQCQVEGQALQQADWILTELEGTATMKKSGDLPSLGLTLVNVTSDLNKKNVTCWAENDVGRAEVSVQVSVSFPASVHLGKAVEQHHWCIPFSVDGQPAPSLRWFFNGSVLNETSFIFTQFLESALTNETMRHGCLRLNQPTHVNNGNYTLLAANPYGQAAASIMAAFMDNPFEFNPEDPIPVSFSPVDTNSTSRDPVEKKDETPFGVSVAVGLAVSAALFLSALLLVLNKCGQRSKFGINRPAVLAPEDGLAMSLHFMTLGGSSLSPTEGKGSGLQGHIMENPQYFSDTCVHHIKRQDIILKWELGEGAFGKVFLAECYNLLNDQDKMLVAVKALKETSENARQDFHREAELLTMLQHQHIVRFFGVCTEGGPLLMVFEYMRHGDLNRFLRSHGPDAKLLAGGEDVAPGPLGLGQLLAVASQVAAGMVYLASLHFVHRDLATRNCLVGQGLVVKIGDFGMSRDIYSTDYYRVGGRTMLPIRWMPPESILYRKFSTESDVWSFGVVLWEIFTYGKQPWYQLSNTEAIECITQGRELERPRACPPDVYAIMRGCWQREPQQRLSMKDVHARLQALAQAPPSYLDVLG
UniProt P07174, residues 30-425: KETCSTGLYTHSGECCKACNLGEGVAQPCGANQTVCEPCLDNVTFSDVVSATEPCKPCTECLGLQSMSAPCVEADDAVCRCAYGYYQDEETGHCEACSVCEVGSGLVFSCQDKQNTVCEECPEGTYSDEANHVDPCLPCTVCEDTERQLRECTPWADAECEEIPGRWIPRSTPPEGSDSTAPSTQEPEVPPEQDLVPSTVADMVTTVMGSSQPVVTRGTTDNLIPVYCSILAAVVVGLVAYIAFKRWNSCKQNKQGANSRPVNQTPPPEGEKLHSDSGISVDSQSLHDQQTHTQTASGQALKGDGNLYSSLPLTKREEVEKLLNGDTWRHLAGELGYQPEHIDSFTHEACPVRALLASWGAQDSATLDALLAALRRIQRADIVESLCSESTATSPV
UniProt Q9EQG6: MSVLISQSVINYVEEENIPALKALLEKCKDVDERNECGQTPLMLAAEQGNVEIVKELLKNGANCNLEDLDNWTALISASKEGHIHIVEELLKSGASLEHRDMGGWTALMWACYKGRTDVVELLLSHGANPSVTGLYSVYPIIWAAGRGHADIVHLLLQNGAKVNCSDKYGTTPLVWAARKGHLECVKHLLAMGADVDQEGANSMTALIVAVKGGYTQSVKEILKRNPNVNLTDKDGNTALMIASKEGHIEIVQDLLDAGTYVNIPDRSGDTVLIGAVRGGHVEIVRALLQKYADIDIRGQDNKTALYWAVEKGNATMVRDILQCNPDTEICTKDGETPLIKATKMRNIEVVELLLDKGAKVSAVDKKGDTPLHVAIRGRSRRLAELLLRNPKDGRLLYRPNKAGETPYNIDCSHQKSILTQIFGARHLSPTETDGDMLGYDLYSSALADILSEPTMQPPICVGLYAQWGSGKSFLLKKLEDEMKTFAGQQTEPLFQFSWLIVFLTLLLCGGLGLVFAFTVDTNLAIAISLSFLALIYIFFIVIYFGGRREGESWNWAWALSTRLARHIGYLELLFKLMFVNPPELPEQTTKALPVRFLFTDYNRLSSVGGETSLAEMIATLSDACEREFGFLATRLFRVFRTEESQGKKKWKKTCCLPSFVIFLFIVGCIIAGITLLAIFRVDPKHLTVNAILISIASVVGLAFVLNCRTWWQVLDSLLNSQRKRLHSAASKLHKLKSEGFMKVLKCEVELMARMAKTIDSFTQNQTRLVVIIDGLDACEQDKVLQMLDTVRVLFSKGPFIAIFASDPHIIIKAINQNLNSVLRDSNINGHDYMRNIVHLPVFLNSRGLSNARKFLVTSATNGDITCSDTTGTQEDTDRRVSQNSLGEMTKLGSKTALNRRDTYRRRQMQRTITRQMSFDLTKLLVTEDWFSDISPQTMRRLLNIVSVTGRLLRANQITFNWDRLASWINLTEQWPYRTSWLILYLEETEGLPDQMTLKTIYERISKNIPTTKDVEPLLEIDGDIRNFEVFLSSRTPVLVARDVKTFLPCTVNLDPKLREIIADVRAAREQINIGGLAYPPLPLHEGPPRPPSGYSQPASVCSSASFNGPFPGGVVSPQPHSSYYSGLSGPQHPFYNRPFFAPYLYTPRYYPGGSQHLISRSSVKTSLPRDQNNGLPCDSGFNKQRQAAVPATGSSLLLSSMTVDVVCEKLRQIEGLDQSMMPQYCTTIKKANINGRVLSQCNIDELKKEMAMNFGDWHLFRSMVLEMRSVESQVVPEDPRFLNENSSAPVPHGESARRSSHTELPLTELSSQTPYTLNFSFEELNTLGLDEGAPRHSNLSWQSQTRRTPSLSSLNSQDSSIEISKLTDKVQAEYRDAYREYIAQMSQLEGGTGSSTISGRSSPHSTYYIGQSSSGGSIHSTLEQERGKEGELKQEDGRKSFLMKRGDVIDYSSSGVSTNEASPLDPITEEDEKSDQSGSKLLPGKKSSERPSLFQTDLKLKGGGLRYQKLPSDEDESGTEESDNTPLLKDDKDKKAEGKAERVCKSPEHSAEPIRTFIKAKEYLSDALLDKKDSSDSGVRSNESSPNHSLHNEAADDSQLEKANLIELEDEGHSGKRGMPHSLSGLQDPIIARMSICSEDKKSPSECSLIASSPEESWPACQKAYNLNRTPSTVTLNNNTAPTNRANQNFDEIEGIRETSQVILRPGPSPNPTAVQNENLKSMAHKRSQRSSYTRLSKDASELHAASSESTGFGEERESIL

What was measured:
[1] = biological target: TrkA receptor, full length cDNA transfected into HEK293 cells (rat) (UniProt P35739); assay: co-immunoprecipitation from transfected HEK293 cells (Flag agarose-conjugated antibody), Western blot
[2] = biological target: TrkA receptor, full length cDNA transfected into HEK293 cells (rat) (UniProt P35739); assay: co-immunoprecipitation (Example 1 and FIGS. 15A and 15B)
[3] = biological target: rat HA-tagged p75 neurotrophin receptor (rat) (UniProt P07174); assay: co-immunoprecipitation from co-transfected HEK293T cells (IP with anti-ARMS 892, immunoblot with anti-HA)

Measured: binding

ARMS (Ankyrin Repeat-rich, Membrane Spanning) protein, rat, full length (from UniProt Q9EQG6 1-1762)
binds: all assays above
